From patent US20040253247A1
No constants are given. Whether binding was seen depends on the method and setting. Some binding calls cover weakened binding; strength is not graded here. For some of these results: Where a sequence is shown, tags or fusion partners need not be part of it.

Chains of the proteins cited; added tags and fusions are not shown. Residues count along the entry.
UniProt P02768, residues 25-609: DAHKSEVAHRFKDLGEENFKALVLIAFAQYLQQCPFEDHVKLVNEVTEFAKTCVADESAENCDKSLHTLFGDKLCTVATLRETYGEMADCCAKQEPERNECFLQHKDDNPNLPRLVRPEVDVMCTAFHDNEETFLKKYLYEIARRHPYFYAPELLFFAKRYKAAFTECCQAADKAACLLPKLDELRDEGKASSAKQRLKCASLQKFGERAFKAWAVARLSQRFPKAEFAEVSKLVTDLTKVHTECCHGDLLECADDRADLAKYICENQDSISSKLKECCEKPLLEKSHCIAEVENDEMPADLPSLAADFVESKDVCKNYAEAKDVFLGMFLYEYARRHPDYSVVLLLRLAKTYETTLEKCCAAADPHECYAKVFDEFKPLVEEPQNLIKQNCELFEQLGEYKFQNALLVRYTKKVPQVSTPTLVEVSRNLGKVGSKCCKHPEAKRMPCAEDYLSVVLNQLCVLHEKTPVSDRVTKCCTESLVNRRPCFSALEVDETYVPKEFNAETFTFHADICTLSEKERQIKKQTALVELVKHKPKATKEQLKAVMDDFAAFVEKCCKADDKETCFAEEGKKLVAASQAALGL
UniProt P02769, residues 25-607: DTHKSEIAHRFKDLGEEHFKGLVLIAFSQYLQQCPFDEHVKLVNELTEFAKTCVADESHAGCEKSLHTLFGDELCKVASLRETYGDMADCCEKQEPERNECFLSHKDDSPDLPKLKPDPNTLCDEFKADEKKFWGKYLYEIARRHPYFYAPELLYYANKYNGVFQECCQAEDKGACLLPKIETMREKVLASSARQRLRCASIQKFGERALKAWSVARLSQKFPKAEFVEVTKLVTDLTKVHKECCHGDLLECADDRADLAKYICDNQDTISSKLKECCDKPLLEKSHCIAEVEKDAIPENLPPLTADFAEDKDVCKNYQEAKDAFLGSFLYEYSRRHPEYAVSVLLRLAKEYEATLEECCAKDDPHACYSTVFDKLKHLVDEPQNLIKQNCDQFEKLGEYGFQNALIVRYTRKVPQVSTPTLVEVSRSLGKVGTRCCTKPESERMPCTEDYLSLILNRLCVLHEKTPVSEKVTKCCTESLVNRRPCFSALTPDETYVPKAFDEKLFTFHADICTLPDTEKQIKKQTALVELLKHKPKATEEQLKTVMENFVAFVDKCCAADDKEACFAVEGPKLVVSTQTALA
UniProt P07724, residues 25-608: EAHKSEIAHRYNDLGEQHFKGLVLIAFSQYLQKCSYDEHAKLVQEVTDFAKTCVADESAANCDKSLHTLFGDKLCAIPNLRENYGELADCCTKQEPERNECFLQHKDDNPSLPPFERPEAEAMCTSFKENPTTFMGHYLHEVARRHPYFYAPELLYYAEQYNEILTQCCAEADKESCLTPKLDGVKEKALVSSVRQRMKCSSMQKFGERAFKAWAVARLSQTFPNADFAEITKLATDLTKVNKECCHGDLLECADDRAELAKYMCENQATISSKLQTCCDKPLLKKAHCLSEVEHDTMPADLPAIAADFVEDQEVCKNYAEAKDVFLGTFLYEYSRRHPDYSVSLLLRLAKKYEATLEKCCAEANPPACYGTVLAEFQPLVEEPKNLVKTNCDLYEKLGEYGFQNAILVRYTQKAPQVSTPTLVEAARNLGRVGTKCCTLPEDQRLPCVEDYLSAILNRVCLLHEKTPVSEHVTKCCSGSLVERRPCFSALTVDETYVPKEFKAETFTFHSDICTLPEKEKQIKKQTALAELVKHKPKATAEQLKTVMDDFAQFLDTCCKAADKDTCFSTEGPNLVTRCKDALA
UniProt Q28522, residues 17-600: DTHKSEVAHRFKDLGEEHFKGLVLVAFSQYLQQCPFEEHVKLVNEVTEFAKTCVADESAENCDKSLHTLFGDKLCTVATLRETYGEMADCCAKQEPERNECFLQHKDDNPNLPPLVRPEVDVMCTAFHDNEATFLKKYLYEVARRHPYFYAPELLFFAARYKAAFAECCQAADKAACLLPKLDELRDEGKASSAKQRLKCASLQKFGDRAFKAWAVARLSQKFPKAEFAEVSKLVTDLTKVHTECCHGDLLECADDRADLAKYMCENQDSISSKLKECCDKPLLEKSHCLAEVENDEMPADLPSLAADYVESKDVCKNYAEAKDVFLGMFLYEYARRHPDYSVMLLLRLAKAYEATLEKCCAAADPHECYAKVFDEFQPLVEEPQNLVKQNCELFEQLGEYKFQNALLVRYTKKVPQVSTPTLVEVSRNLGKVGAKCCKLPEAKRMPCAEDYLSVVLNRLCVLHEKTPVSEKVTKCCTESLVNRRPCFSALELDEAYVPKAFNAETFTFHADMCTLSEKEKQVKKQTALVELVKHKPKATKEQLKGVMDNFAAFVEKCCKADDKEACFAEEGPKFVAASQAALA
UniProt P02770, residues 25-608: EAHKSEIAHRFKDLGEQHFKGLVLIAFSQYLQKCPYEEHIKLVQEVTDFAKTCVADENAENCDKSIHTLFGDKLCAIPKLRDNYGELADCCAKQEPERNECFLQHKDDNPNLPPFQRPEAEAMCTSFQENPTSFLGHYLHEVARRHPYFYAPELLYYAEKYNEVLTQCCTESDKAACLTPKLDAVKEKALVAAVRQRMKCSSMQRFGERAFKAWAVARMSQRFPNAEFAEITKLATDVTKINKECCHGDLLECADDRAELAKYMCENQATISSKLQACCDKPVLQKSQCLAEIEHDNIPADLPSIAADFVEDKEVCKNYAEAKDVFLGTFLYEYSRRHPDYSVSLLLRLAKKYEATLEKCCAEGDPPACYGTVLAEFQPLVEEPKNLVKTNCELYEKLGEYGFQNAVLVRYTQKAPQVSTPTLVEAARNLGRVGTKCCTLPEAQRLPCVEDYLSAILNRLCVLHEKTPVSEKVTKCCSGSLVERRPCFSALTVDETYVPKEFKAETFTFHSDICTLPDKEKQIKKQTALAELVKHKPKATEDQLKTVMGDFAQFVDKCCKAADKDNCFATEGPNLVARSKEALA
UniProt P49065, residues 25-608: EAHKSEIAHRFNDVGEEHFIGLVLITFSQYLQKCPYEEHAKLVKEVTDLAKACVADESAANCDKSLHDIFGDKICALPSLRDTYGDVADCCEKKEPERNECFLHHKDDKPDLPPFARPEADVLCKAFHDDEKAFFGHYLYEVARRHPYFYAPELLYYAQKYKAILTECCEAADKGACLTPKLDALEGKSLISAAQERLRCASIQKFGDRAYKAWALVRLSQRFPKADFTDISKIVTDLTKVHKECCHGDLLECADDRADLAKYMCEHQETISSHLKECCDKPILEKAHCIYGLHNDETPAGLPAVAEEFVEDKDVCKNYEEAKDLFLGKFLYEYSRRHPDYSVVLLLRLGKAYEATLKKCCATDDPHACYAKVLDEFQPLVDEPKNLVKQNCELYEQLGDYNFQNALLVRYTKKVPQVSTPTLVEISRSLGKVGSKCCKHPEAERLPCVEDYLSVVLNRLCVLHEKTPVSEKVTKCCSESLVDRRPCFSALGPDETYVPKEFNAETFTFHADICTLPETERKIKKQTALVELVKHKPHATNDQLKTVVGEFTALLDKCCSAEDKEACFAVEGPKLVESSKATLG

molecular target: IgG-Fc [IgG part: P01857]; experiment: general note of Table I; phage clone, M13/gIII display, ALA scan, EC50 in its own row

Row | Binder | binding
1 | WEADCAWHLGELVWCTKAEE | binds
2 | WEADCAWHLGELVACTKVEE | binds
3 | WEADCAWHLGELVWCAKVEE | binds
4 | WEADCAWHLGELVWCTKVAE | binds
5 | WEADCAWHLGELVWCTAVEE | binds

molecular target: IgG-Fc [IgG part: P01857]; experiment: general note of Table I; phage clone, M13/gIII display (listed twice: 734 nM at r33, N/A at r71)

Row | Binder | binding
6 | KEASCSYWLGELVWCSPGVE | binds

molecular target: IgG-Fc [IgG part: P01857]; experiment: general note of Table I; synthetic peptide, its number stands in its own row

Row | Binder | binding
7 | WEADCAWHLGELVWCTPMEF (N-terminal amine and C-terminal amide) | binds
8 | ETQRCTWHMGELVWCEREHN (N-terminal amine and C-terminal amide) [Fc-I peptide …] | binds
9 | DLADCSWHMGELVWCSRVEG (N-terminal amine and C-terminal amide) | binds
10 | KEASCSYWLGELVWCVAGVE (N-terminal amine and C-terminal amide) [Fc-II peptide …] | binds

molecular target: human albumin (human) (UniProt P02768); experiment: phage ELISA, photograph of the plate

Row | Binder | binding
11 | QGLIGDICLPRWGCLWGDSV [RB-R8] | binds
12 | HSQMEDICLPRWGCLWGDEL [RB-B8] | binds
13 | EVRSFCTDWPAHYSCTSLQG [HA-H74] | binds
14 | RAAESSVCYWPGICFDRTEQ [HB-H2] | binds
15 | QRHPEDICLPRWGCLWGDDD [RB-H1] | binds

molecular target: bovine albumin (bovine) (UniProt P02769); experiment: phage ELISA, photograph of the plate

Row | Binder | binding
16 | QGLIGDICLPRWGCLWGDSV [RB-R8] | binds
17 | HSQMEDICLPRWGCLWGDEL [RB-B8] | binds
18 | RAAESSVCYWPGICFDRTEQ [HB-H2] | binds
19 | QRHPEDICLPRWGCLWGDDD [RB-H1] | binds

molecular target: mouse albumin (mouse) (UniProt P07724); experiment: phage ELISA, photograph of the plate

Row | Binder | binding
20 | DICLPRWGCLW [RC-R13] | binds
21 | QGLIGDICLPRWGCLWGDSV [RB-R8] | binds
22 | HSQMEDICLPRWGCLWGDEL [RB-B8] | binds
23 | EEDLCLPVWGCLWGA [RBC-R14] | binds
24 | QRHPEDICLPRWGCLWGDDD [RB-H1] | binds
25 | DTCADLVRLGLECWA [RD-R2] | binds

molecular target: rhesus albumin (rhesus) (UniProt Q28522); experiment: phage ELISA, photograph of the plate

Row | Binder | binding
26 | QGLIGDICLPRWGCLWGDSV [RB-R8] | binds
27 | HSQMEDICLPRWGCLWGDEL [RB-B8] | binds
28 | RAAESSVCYWPGICFDRTEQ [HB-H2] | binds
29 | QRHPEDICLPRWGCLWGDDD [RB-H1] | binds
30 | DTCADLVRLGLECWA [RD-R2] | binds

molecular target: rat albumin (rat) (UniProt P02770); experiment: phage ELISA, photograph of the plate

Row | Binder | binding
31 | DICLPRWGCLW [RC-R13] | binds
32 | QGLIGDICLPRWGCLWGDSV [RB-R8] | binds
33 | HSQMEDICLPRWGCLWGDEL [RB-B8] | binds
34 | EEDLCLPVWGCLWGA [RBC-R14] | binds
35 | QRHPEDICLPRWGCLWGDDD [RB-H1] | binds
36 | DTCADLVRLGLECWA [RD-R2] | binds

molecular target: rabbit albumin (rabbit) (UniProt P49065); experiment: phage ELISA, photograph of the plate

Row | Binder | binding
37 | QGLIGDICLPRWGCLWGDSV [RB-R8] | binds
38 | GEDWCDSTLLAFDLCGEGAR [BA-B44] | binds
39 | HSQMEDICLPRWGCLWGDEL [RB-B8] | binds
40 | QRHPEDICLPRWGCLWGDDD [RB-H1] | binds
41 | MELWCDSTLMAYDLCGDFNM [BA-B39] | binds
42 | GENWCDWVLLAYDLCGEDNT [BA-B37] | binds

molecular target: IgG-Fc [IgG part: P01857]; experiment: phage display selection on immobilized IgG-Fc

Row | Binder | binding
43 | ETQRCTWHMGELVWCEREHN (N-terminal amine and C-terminal amide) [Fc-I peptide …] | binds
44 | KEASCSYWLGELVWCVAGVE (N-terminal amine and C-terminal amide) [Fc-II peptide …] | binds

molecular target: human albumin (human) (UniProt P02768); experiment: phage ELISA

Row | Binder | binding
45 | QGLIGDICLPRWGCLWGDSV [RB-R8] | binds
46 | HSQMEDICLPRWGCLWGDEL [RB-B8] | binds
47 | EVRSFCTDWPAHYSCTSLQG [HA-H74] | binds
48 | RAAESSVCYWPGICFDRTEQ [HB-H2] | binds
49 | QRHPEDICLPRWGCLWGDDD [RB-H1] | binds

molecular target: rat albumin (rat) (UniProt P02770); experiment: phage ELISA

Row | Binder | binding
50 | DICLPRWGCLW [RC-R13] | binds
51 | QGLIGDICLPRWGCLWGDSV [RB-R8] | binds
52 | HSQMEDICLPRWGCLWGDEL [RB-B8] | binds
53 | EEDLCLPVWGCLWGA [RBC-R14] | binds
54 | QRHPEDICLPRWGCLWGDDD [RB-H1] | binds
55 | DTCADLVRLGLECWA [RD-R2] | binds

molecular target: rabbit albumin (rabbit) (UniProt P49065); experiment: phage ELISA

Row | Binder | binding
56 | QGLIGDICLPRWGCLWGDSV [RB-R8] | binds
57 | GEDWCDSTLLAFDLCGEGAR [BA-B44] | binds
58 | HSQMEDICLPRWGCLWGDEL [RB-B8] | binds
59 | QRHPEDICLPRWGCLWGDDD [RB-H1] | binds
60 | MELWCDSTLMAYDLCGDFNM [BA-B39] | binds
61 | GENWCDWVLLAYDLCGEDNT [BA-B37] | binds
